In PubChem BioAssay AID1508600 (Functional Genomics Laboratory (NCATS/FGL), 2020):
Hit rate of the full screen: of about 53,000 sequences, about 3,700 (7%) were called active.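 How the source made its calls: active means gene knockdowns whose robust z-score for IL-1 alpha signal is at least 2 or at most -2, so actives lie on both sides; inactive means the rest.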 Some of the results follow.

Test: Components of the Cytosolic LPS Sensing Pathway: Gene Identification via Genome-wide siRNA Screen;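 further: robust z of the log signal after scaling to non-targeting control siRNA wells of the plate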
Details: RAW264.7 macrophages, IL-1a HTRF, actives lie on both sides, screened at 100 nM (by protocol), cells primed 5 h with Pam3CSK4 first
Method in brief: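 RAW264.7 mouse macrophages reverse-transfected with single siRNAs (100 nM final) for 48h, primed with Pam3CSK4 for 5 hours, then transfected with LipidA for 24 hour. Supernatant IL-1a read by HTRF; values normalized to negative-control median, log-transformed robust z-scores.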

Sequence | z-score
GGUAUAGAGAGUUCGUGUGTT against Snx10 | inactive: -1.06
CGGCCUCUUCUGGUUGUUGTT against Retreg2 | inactive: -0.786
GGAGAAAGCCAAGAAGAAUTT against Cfap206 | inactive: -0.0723
GCAUAUAACCGAGUUGAUUTT against Cdcp1 | inactive: 0.183
GGACAGACACAAGAUGAGATT against Khdc4 | inactive: 0.315
GGCUCAAGCAUUAAUUAAUTT against Myo5c | inactive: 0.0919
GGGAUCGCUGUAUAGAAAUTT against Chdh | inactive: 0.43
GCGAGAUUCUUAAAGAAAUTT against Brdt | inactive: 0.645
GGCUUUGUAGCGAUAACAATT against D930030D11Rik | inactive: -0.936
GGCUGAAGAUGGAAACAUCTT against Gtpbp2 | inactive: -1.91
GGAGUAUGAUUCAGAAAUGTT against Scn11a | inactive: -0.607
GCAGAUCUGCGUCAAUGCUTT against Scube1 | inactive: -0.528
GGGAAGUUUCUUGAAGCACTT against Rfxank | inactive: 0.103
GAGCUAAGCAAGAUGCUAGTT against Sox17 | active: 3.97
GCCGCUUAGAGGCUCAUCUTT against Nfe2l2 | inactive: -1.86
CCAAAUUUUACUGCACGUGTT against Nol11 | inactive: 0.305
GCGAGAAAUUACCACCUUCTT against Klhl8 | inactive: -0.516
GCGGAGAAUAACAUAUCUCTT against Fut8 | inactive: -0.521
UCCCAACUCCUAAAGAUCGTT against F730035P03Rik | inactive: -0.102
GGACAUCCGUCCCUAUAUCTT against Zfp366 | inactive: 0.00789
CCAUGAGGAUGAUUACCUATT against Cnga2 | inactive: -0.947
GGAAAAUCAUGGGAGCCUUTT against Lpo | inactive: -0.435
CGCACUGGAUAAUAUCAGCTT against Dok5 | inactive: 0.0135
GCACGGCCCUACUUUAUAGTT against Trim33 | inactive: -1.43
GGAAAAAGGCUUUUGGGACTT against Olfr135 | inactive: 0.653
CGAAAGUUACUCAUAGAGATT against Itga6 | inactive: -0.143
GGCGAGAACAGUUUGAGUUTT against Ttll13 | inactive: 0.96
CGGUUGUCUUCCUCUUAGUTT against Fzd5 | inactive: -0.52
CCUUUAUACCCAAUACCUATT against Atxn2 | inactive: 0.234

Individual results from the list.
Value of CGGUUGUCUUCCUCUUAGUTT against Fzd5 under z-score: inactive: -0.52
Value of GGUAUAGAGAGUUCGUGUGTT against Snx10 under z-score: inactive: -1.06
